# PubChem BioAssay AID1224828, NIAID | 2016
# Purpose: 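Knock-downs that increase or decrease LPS-induced p65 nuclear translocation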 (primary screen)
# System: mouse RAW264.7 G9 macrophage reporter cells (GFP-p65, Tnf promoter-mCherry)
# Reagents: siRNA pool against mouse genes, 100 nM
# Time to read-out: 2 days siRNA transfection, then 40 min LPS before fixation
# Conditions: LPS (Salmonella minnesota R595) at 10 ng/ml
# Read-out: 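Microscopy ratio of nuclear to perinuclear-ring GFP-p65 signal, scaled to the plate median; gene score is the average of two replicate robust z-scores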
# Scale: p65 translocation robust z-score: higher = more nuclear NF-kappaB p65 after LPS than the plate median; nuclear/cytoplasmic p65 ratio: higher = more nuclear NF-kappaB p65
# Call rule: 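Called active when z exceeds 3.3 or falls under -1.56 (median of Tlr4 controls), giving activity score of at least 50; no calls for control wells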
# Meaning of the calls: active = hit (p65 shift raised or lowered); inactive = no clear change
# The deposit covers about 17,000 reagents; shown is a random part of them. Over the whole deposit, 762 (4.5%) were called active. 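Active calls include both raised and lowered p65 entry, mostly lowered; wells with fewer than 50 cells lack a z-score.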 Raw values vary from plate to plate and are shown uncorrected.
Target gene,p65 translocation robust z-score,"nuclear/cytoplasmic p65 ratio, rep 1","nuclear/cytoplasmic p65 ratio, rep 2",low cell count flag,outcome
Sult1d1,,1.46,1.15,fewer than 50 cells per well; well left out of scoring,inactive
Adgrg7,1.62,1.74,1.81,enough cells to score,inactive
Or9r7,0.13,1.46,1.33,enough cells to score,inactive
Apob,1.16,1.82,1.76,enough cells to score,inactive
Rad23a,-0.05,1.5,1.52,enough cells to score,inactive
Pou2f1,2.32,1.63,1.88,enough cells to score,inactive
Fut7,-0.62,1.54,1.34,enough cells to score,inactive
Ankrd42,-0.11,1.25,1.55,enough cells to score,inactive
Serpina12,0.65,1.49,1.33,enough cells to score,inactive
Tulp3,,1.27,1.29,fewer than 50 cells per well; well left out of scoring,inactive
Mta1,-0.08,1.37,1.39,enough cells to score,inactive
Ubn1,-0.34,1.4,1.52,enough cells to score,inactive
Sec16b,1.09,1.46,1.43,enough cells to score,inactive
Vsx1,0.72,1.6,1.61,enough cells to score,inactive
Luc7l3,-0.44,1.57,1.52,enough cells to score,inactive
Il18,-0.53,1.43,1.29,enough cells to score,inactive
A530021J07Rik,0.18,1.37,1.58,enough cells to score,inactive
Drc11,,1.14,1.15,fewer than 50 cells per well; well left out of scoring,inactive
1810009A15Rik,-1.79,1.13,1.22,enough cells to score,active
Rps6ka3,0.81,1.85,1.45,enough cells to score,inactive
Pcdha6,1.61,1.66,1.41,enough cells to score,inactive
Brwd1,0.99,1.62,1.78,enough cells to score,inactive
Gstm5,-0.64,1.37,1.27,enough cells to score,inactive
Dync2i1,-0.33,1.55,1.48,enough cells to score,inactive
Uchl1,1.3,1.68,1.7,enough cells to score,inactive
Ints10,,1.41,1.68,fewer than 50 cells per well; well left out of scoring,inactive
Foxf2,-1.34,1.23,1.22,enough cells to score,inactive
Trim68,-1.53,1.3,1.32,enough cells to score,inactive
Defb1,0.4,1.45,1.78,enough cells to score,inactive
Pxmp2,0.08,1.54,1.75,enough cells to score,inactive
Lonp2,,1.07,1.11,fewer than 50 cells per well; well left out of scoring,inactive
Dennd1c,-1.85,1.07,1.04,enough cells to score,active
Naa15,-0.22,1.41,1.32,enough cells to score,inactive
Bbs7,0.06,1.58,1.67,enough cells to score,inactive
Raly,-0.41,1.34,1.16,enough cells to score,inactive
Crybb3,0.72,1.68,1.38,enough cells to score,inactive
Washc3,,1.04,0.94,fewer than 50 cells per well; well left out of scoring,inactive
Frmd4b,0.2,1.42,1.46,enough cells to score,inactive
Bcl11b,,1.07,1.1,fewer than 50 cells per well; well left out of scoring,inactive
Duoxa1,1.03,1.73,2.02,enough cells to score,inactive
Neil1,-0.34,1.39,1.3,enough cells to score,inactive
Rbm4b,0.26,1.33,1.28,enough cells to score,inactive
Nub1,0.03,1.4,1.43,enough cells to score,inactive
Ephb6,-1.26,1.46,1.25,enough cells to score,inactive
Gm9975,0.79,1.73,1.89,enough cells to score,inactive
Spink4,0.04,1.48,1.19,enough cells to score,inactive
Hmgxb3,-2.02,1.19,1.25,enough cells to score,active
Socs4,1.98,1.46,2.22,enough cells to score,inactive
Slc6a9,,1.38,1.17,fewer than 50 cells per well; well left out of scoring,inactive
Cnot11,1.13,1.53,1.91,enough cells to score,inactive
Pinx1,-0.86,1.37,1.3,enough cells to score,inactive
Cryba2,-1.51,1.19,1.25,enough cells to score,inactive
Rigi,1.37,1.73,1.78,enough cells to score,inactive
Atl3,-0.32,1.28,1.46,enough cells to score,inactive
Fyco1,-0.03,1.58,1.47,enough cells to score,inactive
Brd8dc,0.07,1.31,1.28,enough cells to score,inactive
Fnbp1l,0.82,1.48,1.6,enough cells to score,inactive
Ubl7,,1.54,1.45,fewer than 50 cells per well; well left out of scoring,inactive
Tnfaip6,0.48,1.55,1.62,enough cells to score,inactive
